Data published in publication PMC6242896.
Results are given in words; binding and its absence hold for the method and conditions named. Binding seen in cells or lysates may run through a third protein. Some binding calls cover weakened binding; strength is not graded here. For some of these results: Where a sequence is shown, tags or fusion partners need not be part of it. Each block holds one molecule with its values, some of them ahead of it.

Protein sequences, listed by entry. Tags and fused reporters are not part of them. Residues count along the entry.
UniProt P35222: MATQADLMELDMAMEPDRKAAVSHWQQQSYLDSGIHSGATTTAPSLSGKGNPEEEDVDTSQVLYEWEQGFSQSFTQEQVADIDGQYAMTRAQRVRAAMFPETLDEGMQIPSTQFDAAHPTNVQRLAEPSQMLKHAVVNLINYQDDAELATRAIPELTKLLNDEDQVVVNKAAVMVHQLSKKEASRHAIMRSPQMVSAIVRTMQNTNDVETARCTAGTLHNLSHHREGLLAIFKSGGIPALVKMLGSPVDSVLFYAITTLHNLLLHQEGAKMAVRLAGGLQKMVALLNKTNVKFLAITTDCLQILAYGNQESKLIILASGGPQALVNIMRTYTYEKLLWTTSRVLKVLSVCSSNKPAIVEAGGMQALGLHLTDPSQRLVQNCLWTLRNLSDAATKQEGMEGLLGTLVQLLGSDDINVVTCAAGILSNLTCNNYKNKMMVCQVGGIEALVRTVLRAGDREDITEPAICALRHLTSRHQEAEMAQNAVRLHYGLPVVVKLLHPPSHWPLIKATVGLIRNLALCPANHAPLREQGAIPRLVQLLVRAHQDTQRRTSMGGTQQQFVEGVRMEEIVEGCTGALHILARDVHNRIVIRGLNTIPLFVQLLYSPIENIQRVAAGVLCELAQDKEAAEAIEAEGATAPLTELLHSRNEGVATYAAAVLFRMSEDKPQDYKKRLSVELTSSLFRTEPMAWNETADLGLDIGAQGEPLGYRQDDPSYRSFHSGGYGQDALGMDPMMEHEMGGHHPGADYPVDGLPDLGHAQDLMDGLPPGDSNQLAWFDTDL
UniProt P29317, residues 24-976: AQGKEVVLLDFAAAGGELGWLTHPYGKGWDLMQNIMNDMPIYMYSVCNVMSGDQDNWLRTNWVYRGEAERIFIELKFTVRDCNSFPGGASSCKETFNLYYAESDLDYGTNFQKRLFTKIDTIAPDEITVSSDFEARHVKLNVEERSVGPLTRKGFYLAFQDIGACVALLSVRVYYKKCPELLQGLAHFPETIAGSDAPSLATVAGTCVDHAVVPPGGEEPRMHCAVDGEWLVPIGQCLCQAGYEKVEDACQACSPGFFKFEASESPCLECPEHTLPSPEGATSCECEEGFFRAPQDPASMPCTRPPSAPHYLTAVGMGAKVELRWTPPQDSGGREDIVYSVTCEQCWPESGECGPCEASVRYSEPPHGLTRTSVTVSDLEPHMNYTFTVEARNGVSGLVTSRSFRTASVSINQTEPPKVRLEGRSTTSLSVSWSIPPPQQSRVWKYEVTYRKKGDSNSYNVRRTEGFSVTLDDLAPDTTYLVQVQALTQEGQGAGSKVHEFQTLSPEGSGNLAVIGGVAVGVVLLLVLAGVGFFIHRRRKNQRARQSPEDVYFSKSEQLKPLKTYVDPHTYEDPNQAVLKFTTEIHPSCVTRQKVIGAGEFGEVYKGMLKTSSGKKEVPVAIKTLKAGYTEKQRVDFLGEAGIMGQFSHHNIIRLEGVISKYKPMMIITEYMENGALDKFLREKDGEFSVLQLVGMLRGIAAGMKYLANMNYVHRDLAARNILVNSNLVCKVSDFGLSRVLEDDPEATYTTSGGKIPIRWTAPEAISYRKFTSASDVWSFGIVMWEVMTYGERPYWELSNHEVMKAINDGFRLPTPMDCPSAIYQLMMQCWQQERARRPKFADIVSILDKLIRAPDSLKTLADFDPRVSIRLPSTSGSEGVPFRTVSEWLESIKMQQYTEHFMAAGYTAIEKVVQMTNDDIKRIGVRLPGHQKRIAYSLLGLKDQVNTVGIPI
UniProt O15169: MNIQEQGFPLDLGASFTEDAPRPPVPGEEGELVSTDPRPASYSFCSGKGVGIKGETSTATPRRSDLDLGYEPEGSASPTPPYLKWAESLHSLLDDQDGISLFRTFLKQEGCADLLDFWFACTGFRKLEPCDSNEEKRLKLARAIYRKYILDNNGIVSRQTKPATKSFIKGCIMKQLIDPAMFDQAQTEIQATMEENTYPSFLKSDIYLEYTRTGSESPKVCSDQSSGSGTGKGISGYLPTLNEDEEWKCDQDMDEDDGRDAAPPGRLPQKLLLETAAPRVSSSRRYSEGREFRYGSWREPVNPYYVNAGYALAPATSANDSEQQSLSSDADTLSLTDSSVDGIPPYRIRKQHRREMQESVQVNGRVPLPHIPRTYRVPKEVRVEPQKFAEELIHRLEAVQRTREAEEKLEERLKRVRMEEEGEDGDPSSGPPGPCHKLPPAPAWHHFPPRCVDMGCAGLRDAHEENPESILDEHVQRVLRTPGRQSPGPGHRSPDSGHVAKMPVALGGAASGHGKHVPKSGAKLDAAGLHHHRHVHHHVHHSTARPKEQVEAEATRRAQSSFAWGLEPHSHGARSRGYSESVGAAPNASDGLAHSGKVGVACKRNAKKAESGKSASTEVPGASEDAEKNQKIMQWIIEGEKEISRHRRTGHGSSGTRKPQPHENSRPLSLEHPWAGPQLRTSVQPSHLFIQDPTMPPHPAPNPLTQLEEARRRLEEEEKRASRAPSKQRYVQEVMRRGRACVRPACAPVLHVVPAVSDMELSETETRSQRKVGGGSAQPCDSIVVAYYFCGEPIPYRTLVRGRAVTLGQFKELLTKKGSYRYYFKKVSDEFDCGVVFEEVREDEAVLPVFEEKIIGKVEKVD

Experiments:
GST-Wnt1 = biological target: T1, GST-Wnt1 (UniProt P04628); assay: pull-down; GST-Wnt1 on glutathione beads incubated with EphA2 overnight at 4 °C, washed with PBS; blot with anti-EphA2; source of EphA2 not told
T1 sequence: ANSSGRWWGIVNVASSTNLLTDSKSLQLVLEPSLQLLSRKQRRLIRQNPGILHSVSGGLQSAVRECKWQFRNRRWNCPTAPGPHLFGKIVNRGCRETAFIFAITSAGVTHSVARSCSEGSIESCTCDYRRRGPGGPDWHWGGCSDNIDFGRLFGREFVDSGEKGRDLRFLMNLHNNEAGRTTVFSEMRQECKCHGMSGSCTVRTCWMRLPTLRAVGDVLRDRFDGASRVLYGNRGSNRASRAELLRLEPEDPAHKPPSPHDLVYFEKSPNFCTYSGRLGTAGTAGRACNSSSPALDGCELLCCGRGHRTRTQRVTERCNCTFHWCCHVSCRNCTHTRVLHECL

[1] = biological target: endogenous β-catenin (human (endogenous in AGS)) (UniProt P35222); assay: co-IP; endogenous proteins in AGS and BGC823 lysates; 2 μg antibody overnight at 4 °C, Protein A/G-Sepharose; also after Flag-Dvl2 overexpression, si-Dvl2, Wnt3a stimulation, EphA2 overexpression, EphA2 shRNA or EphrinA1 treatment
[2] = biological target: EPH receptor A2 (EphA2), expressed from pcDNA3.1-EphA2 (UniProt P29317); assay: proximity ligation; Duolink PLA; HEK293 cells transfected with pcDNA3.1-EphA2 for 48 h, incubated with Flag-Wnt1 conditioned medium for 3 h, fixed and permeabilised; anti-Flag (mouse) and anti-EphA2 (rabbit)
[3] = biological target: EPH receptor A2 (EphA2), expressed from pcDNA3.1-EphA2 (UniProt P29317); assay: co-IP; pcDNA3.1-EphA2 and Flag-Wnt1 co-expressed in HEK293 cells for 48 h; lysate precipitated with anti-EphA2 or anti-Flag

binding (GST-Wnt1): binds
Molecule: EphA2 (as used in the GST-Wnt1 pull-down, Fig. 1f) (from UniProt P29317 24-976) (receptor)

binding [1]: binds
Molecule: endogenous Axin1 (from UniProt O15169 1-862)

binding [2]: binds
binding [3]: binds
B1: Flag-Wnt1 (ligand, UniProt P04628 28-370)
chain: ANSSGRWWGIVNVASSTNLLTDSKSLQLVLEPSLQLLSRKQRRLIRQNPGILHSVSGGLQSAVRECKWQFRNRRWNCPTAPGPHLFGKIVNRGCRETAFIFAITSAGVTHSVARSCSEGSIESCTCDYRRRGPGGPDWHWGGCSDNIDFGRLFGREFVDSGEKGRDLRFLMNLHNNEAGRTTVFSEMRQECKCHGMSGSCTVRTCWMRLPTLRAVGDVLRDRFDGASRVLYGNRGSNRASRAELLRLEPEDPAHKPPSPHDLVYFEKSPNFCTYSGRLGTAGTAGRACNSSSPALDGCELLCCGRGHRTRTQRVTERCNCTFHWCCHVSCRNCTHTRVLHECL
